Values from PubChem BioAssay AID1259306 (Sanger Institute, 2017)

Test: 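Find kinases whose loss reduces colorectal cancer cell viability or aids targeted drugs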 (primary screen)
System: human SNU-C5 colorectal cancer cells
Reagent: siRNA pool against human genes
Treatment: DMSO vehicle alone, or one anchor drug: BYL719 at 1 µM, cetuximab at 5 µg/ml or trametinib at 10 nM, given 24 h into the assay
Read-out: 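Viability versus non-targeting pool averaged across replicates, given as fraction and robust z-score, and synergy scores for BYL719, cetuximab or trametinib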
Reading the numbers: robust z-score, knock-down alone and viability, knock-down alone: higher = more viable cells; synergy score with BYL719: higher = stronger synthetic lethality with BYL719; synergy score with cetuximab: higher = stronger synthetic lethality with cetuximab; synergy score with trametinib: higher = stronger synthetic lethality with trametinib
Call rule: 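Essential if knock-down without drug gives a robust z-score under -3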
Calls: active = essential (knock-down alone); inactive = no change alone
Here is an unselected part of 794 deposited reagents. 11 of them (1.4%) count as active. 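Calls reflect knock-down alone; synergy scores play no part, so knock-downs synergising with a drug can be called no change.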 Unmarked entries are inactive. No viability above 1 is reported: the scale is capped. Not stated in the record: the amount of reagent, the time to read-out.

Target gene,"robust z-score, knock-down alone","viability, knock-down alone",synergy score with BYL719,synergy score with cetuximab,synergy score with trametinib
PRKCSH (GeneID 5589),0.504,0.933,0.0954,0.037,0.0525
MAP2K3 (GeneID 5606),-1.64,0.638,0.124,0.112,-0.16
RAD21 (GeneID 5885),0.0589,0.872,0.0139,0.0188,0.0605
PRKAG3 (GeneID 53632),-2.95,0.457,-0.13,-0.031,-0.136
NEK3 (GeneID 4752),-1.03,0.721,-0.279,-0.0955,-0.0236
CSNK1G2 (GeneID 1455),0.989,1,0.0968,0,-0.116
IGF1R (GeneID 3480),-0.36,0.814,0.0274,-0.186,-0.256
PIK3CA (GeneID 5290),0.396,0.918,0.0175,0.0071,0.00208
CHEK1 (GeneID 1111),-1.77,0.62,0.00823,-0.0441,-0.0389
PLK1 (GeneID 5347),-3.42 (active),0.393,-0.00713,-0.0589,0.000477
CKMT2 (GeneID 1160),0.399,0.919,0.31,0.0717,-0.0318

Continued; the last 4 above are carried over.
Target gene,"robust z-score, knock-down alone","viability, knock-down alone",synergy score with BYL719,synergy score with cetuximab,synergy score with trametinib
PIK3CA (GeneID 5290),0.396,0.918,0.0175,0.0071,0.00208
CHEK1 (GeneID 1111),-1.77,0.62,0.00823,-0.0441,-0.0389
PLK1 (GeneID 5347),-3.42 (active),0.393,-0.00713,-0.0589,0.000477
CKMT2 (GeneID 1160),0.399,0.919,0.31,0.0717,-0.0318
CHD4 (GeneID 1108),-0.692,0.768,-0.015,-0.0424,-0.0544
MAP3K19 (GeneID 80122),-1.79,0.618,0.0764,0.104,-0.136
MAP3K3 (GeneID 4215),0.0655,0.873,0.138,0.168,0.05
PRKCI (GeneID 5584),0.358,0.913,0.25,-0.087,-0.073
MAP3K11 (GeneID 4296),-0.436,0.804,-0.0762,-0.134,-0.0521
MAP3K20 (GeneID 51776),0.989,1,0,0.121,-0.0395
CDK6 (GeneID 1021),0.146,0.884,0.232,0.0217,0.0445
AURKA (GeneID 6790),-2.22,0.558,-0.195,-0.00703,-0.172
BMX (GeneID 660),-0.218,0.834,-0.0611,-0.00895,-0.161
EPHA8 (GeneID 2046),0.979,0.999,-0.00137,-0.00137,-0.083
MLKL (GeneID 197259),-0.533,0.79,0.019,-0.21,-0.232
WNK2 (GeneID 65268),0.989,1,0,0,0.0428
NAGK (GeneID 55577),-1.63,0.639,-0.235,-0.0116,-0.211
TRIB2 (GeneID 28951),-0.19,0.838,0.0646,-0.162,0.128
PMVK (GeneID 10654),-1.57,0.647,-0.0213,-0.0854,-0.116
CNOT1 (GeneID 23019),-1.73,0.625,0.102,-0.112,0.121
HIPK3 (GeneID 10114),-1.16,0.704,-0.0952,0.0423,-0.0366
RPS6KA6 (GeneID 27330),-0.0711,0.854,0.0113,0.0832,0.108
TJP2 (GeneID 9414),-0.396,0.809,-0.0402,0,-0.0338
BTK (GeneID 695),0.0725,0.874,0.234,0.209,-0.16
EPHA10 (GeneID 284656),-0.686,0.769,0.157,0.168,-0.0136
GK (GeneID 2710),0.0404,0.869,-0.076,0.276,-0.113
PRKAR2A (GeneID 5576),-0.827,0.75,0.0645,-0.211,-0.023
